# From PubChem BioAssay AID1347423 (Functional Genomics Laboratory (NCATS/FGL), 2020)
# Among all 52,000 sequences or so, about 210 (0.4%) were called active.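 The calls were made as follows: active = gene whose silencing raises cell survival under the drug, median off-target-corrected z-score across its silencing RNAs 2 or more; inactive = the rest.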 The list shows a part of the results.
# Assay: Resistance to Poly (ADP-Ribose) Polymerase inhibitor: Gene Identification via Genome-wide siRNA Screen
# Settings: mouse BRCA2 R2336H ES cells, olaparib, CellTiter-Glo viability; stronger effect = higher value
# In short: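 Mouse BRCA2 R2336H ES cells were reverse-transfected with siRNA (20 nM final), treated at 48 h with 500 nM olaparib, and read by CellTiter-Glo after 72 h. Scores: MAD-based z per siRNA, median per gene, seed off-target correction.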
row,Sequence,z-score
1,GGGAAUUCUCCUGUUUGCUTT against Plp2,inactive: 0.0528
2,CAGCUUCUCAUAAAUCUUCTT against Olfr1385,inactive: 0.369
3,CCCUAACUUAAUAAAACCUTT against Triobp,inactive: -1.02
4,GGACCUGCUUGAACAUUACTT against Sh2d2a,inactive: 0.336
5,GGGAGCAUCAAAUUUUGAUTT against BC037674,inactive: 0.715
6,CCUCCACUUCGUGAGCGAATT against AI480653,inactive: -0.213
7,GGAGCAACCAUCCUUGUAUTT against 9030603L14Rik,inactive: -0.29
8,GGAGCUUCUUUUUUGUUUATT against Myog,inactive: 0.143
9,AAAGAUGAGAGAAGAACUCTT against C77604,inactive: 0.855
10,GGACUGGUUCAUCCUUGUGTT against G6pc,inactive: 1.6
11,GGCUGAAAAACCUUCAGCATT against Sparcl1,inactive: 0.205
12,GGCACAGAGAUUGAAGAUCTT against Sry,inactive: 0.537
13,GGAAUUGAUAUUUUGGUGATT against 2610207I16Rik,inactive: 0.554
14,GGCUCCUGGUUCUACAUCCTT against Itpr2,inactive: 0.774
15,GGGAUUGGCGGGUUUUGAUTT against 9330175E14Rik,inactive: -0.402
16,GGAGAACACUGAGGAAAAGTT against Olfr917,inactive: -0.303
17,GCGUGCCCAACAUUAUCAUTT against 1190005I06Rik,inactive: -0.0233
18,CCUGCAGCUGUAAAACCUGTT against Mt4,inactive: -0.909
19,GGUCAAAAAUCAAGUUUACTT against Zfp339,inactive: 1.1
20,GGCUCUAACUAUUAUGUGCTT against Psmc4,inactive: -3.27
21,GGAAAAGUCCCGUAUGGAGTT against Gcc1,inactive: 0.519
22,GGAUCAUGUUUGUUGACCCTT against E030025L21Rik,inactive: 2.14
23,GCUUGAGCUCAUGGUCACUTT against Olfr1309,inactive: 1.08
24,GGAGAUCGACAGAGAAGCATT against Pcdh20,inactive: -1.73
25,GCUACAUACCCAAAUACAUTT against Trpc4ap,inactive: -0.682
26,GGAACUACUAGAAAAAGCATT against Prosc,inactive: -0.288

row,Sequence,z-score
1,CGGGAUAUCAUUCUCCAUATT against Lnpep,inactive: 0.76
2,GGAAUUCCUGUUCGAUUUGTT against Ikbkap,inactive: -0.673
3,GUGUGCUGUCCUCAGUAGATT against Olfr1086,inactive: -0.606
4,GGACUAGUGUGAAAAAGGATT against Nsd1,inactive: 2.65
5,GGAGGUACCUAUUGAGAUCTT against Pte1,inactive: -0.545
6,CGCAAUGCUGGAUUAUUUATT against Ceacam2,inactive: 0.164
7,CCCAUUAAAUUCGAUAAGATT against 9130217G22Rik,inactive: 0.744
8,GGAUAAUUAUAGGAAGAGCTT against B130055D15Rik,inactive: -0.394
9,GCUUGCUAUACGUGGAGAUTT against H2afz,inactive: -0.167
10,GGCCUUUAAUUUCUUACACTT against Akt1s1,inactive: 1.15
11,GGGUCUCUUGUGGUACAUCTT against Cln3,inactive: -0.779
12,GGCAGUGUAUCACAACGUGTT against Commd10,inactive: -2.1
13,GGAAUAUUGGUUGUGAUGATT against Ralb,inactive: 1.39
14,GCGCGACAAAUCGUAGGCUTT against 5430432N15Rik,inactive: -1.16
15,CCGGCUUAUGCUCAACUUCTT against U46068,inactive: -0.133
16,GGAAGAUGAUUAUGAAGAUTT against Apc,inactive: 0.0201
17,GCGCAGAAGAGGCUAUUAUTT against 2300003P22Rik,inactive: -2.44
18,GCAUGGUUUACAAGGAAUGTT against Sca1,inactive: 0.307
19,GGAAAAGUGGAAUCAGAUUTT against Uty,inactive: -0.144
20,GCUUCGACAUUGUUAGUUATT against Ammecr1,inactive: 0.438
21,GCUUAUCACUUCAGAUAUCTT against Bmp2k,inactive: 0.402
22,GCAGAUAUUCUCUGUGCAGTT against Ccnf,inactive: 2.22
23,GGUGGUCUUCAAGUCUGACTT against D030010E02Rik,inactive: -1.68
24,GGACAGUGUUUUUUGUAGUTT against Pdcd4,inactive: -0.51
25,GGACCAAAAGAAAGUAGAATT against 2700008N14Rik,inactive: 1.13
26,CCAUGUCUUGAACUUGGAUTT against Stk22s1,inactive: 0.921

# 29 consecutive records from above, for reference:
row,Sequence,z-score
18,CCUGCAGCUGUAAAACCUGTT against Mt4,inactive: -0.909
19,GGUCAAAAAUCAAGUUUACTT against Zfp339,inactive: 1.1
20,GGCUCUAACUAUUAUGUGCTT against Psmc4,inactive: -3.27
21,GGAAAAGUCCCGUAUGGAGTT against Gcc1,inactive: 0.519
22,GGAUCAUGUUUGUUGACCCTT against E030025L21Rik,inactive: 2.14
23,GCUUGAGCUCAUGGUCACUTT against Olfr1309,inactive: 1.08
24,GGAGAUCGACAGAGAAGCATT against Pcdh20,inactive: -1.73
25,GCUACAUACCCAAAUACAUTT against Trpc4ap,inactive: -0.682
26,GGAACUACUAGAAAAAGCATT against Prosc,inactive: -0.288
1,CGGGAUAUCAUUCUCCAUATT against Lnpep,inactive: 0.76
2,GGAAUUCCUGUUCGAUUUGTT against Ikbkap,inactive: -0.673
3,GUGUGCUGUCCUCAGUAGATT against Olfr1086,inactive: -0.606
4,GGACUAGUGUGAAAAAGGATT against Nsd1,inactive: 2.65
5,GGAGGUACCUAUUGAGAUCTT against Pte1,inactive: -0.545
6,CGCAAUGCUGGAUUAUUUATT against Ceacam2,inactive: 0.164
7,CCCAUUAAAUUCGAUAAGATT against 9130217G22Rik,inactive: 0.744
8,GGAUAAUUAUAGGAAGAGCTT against B130055D15Rik,inactive: -0.394
9,GCUUGCUAUACGUGGAGAUTT against H2afz,inactive: -0.167
10,GGCCUUUAAUUUCUUACACTT against Akt1s1,inactive: 1.15
11,GGGUCUCUUGUGGUACAUCTT against Cln3,inactive: -0.779
12,GGCAGUGUAUCACAACGUGTT against Commd10,inactive: -2.1
13,GGAAUAUUGGUUGUGAUGATT against Ralb,inactive: 1.39
14,GCGCGACAAAUCGUAGGCUTT against 5430432N15Rik,inactive: -1.16
15,CCGGCUUAUGCUCAACUUCTT against U46068,inactive: -0.133
16,GGAAGAUGAUUAUGAAGAUTT against Apc,inactive: 0.0201
17,GCGCAGAAGAGGCUAUUAUTT against 2300003P22Rik,inactive: -2.44
18,GCAUGGUUUACAAGGAAUGTT against Sca1,inactive: 0.307
19,GGAAAAGUGGAAUCAGAUUTT against Uty,inactive: -0.144
20,GCUUCGACAUUGUUAGUUATT against Ammecr1,inactive: 0.438

# Later entries.

row,Sequence,z-score
1,GGAUGGAAGAAGAAAGAAUTT against Cova1,inactive: -0.882
2,GGAGACAGAUGAAUGAACCTT against BC027057,inactive: 1.12
3,CCUUCUGGUAGUGAUUAUCTT against Olfr1365,inactive: -0.333
4,GGCUCUGCUCCUUCAAUGUTT against Dnase1l3,inactive: -0.99
5,GCUAUUAAAGAGGUAGUCATT against Lancl2,inactive: -0.318
6,GGUUGUCAAGAAAUUACCCTT against 4933417C16Rik,inactive: 0.237
7,GGGUGAUUGAUCACUACUUTT against Olfr234,inactive: 0.185
8,GGCUUGAGCUGGGAUACAATT against Hnrpdl,inactive: 0.6
9,GCACUGUGGGUGUUUUUAGTT against E130309D02Rik,inactive: 1.5
10,GGCAGCAGUUAUUGUGGAUTT against Ly6a,inactive: -0.0575
11,GGUGGAAGUUUGAUUGGUGTT against Ap3s2,inactive: -0.0643
12,GGGCAUUGGGAUCCUCAAUTT against Olfr139,inactive: -0.591
13,GGUCAAAACAUGUCCAAACTT against V1rd1,inactive: -0.22
14,GGGUCUCUAAGUGCUCCGUTT against Sfxn2,inactive: -1.09
15,CCGUAUAAACAUUUAUGAGTT against Bmp4,inactive: -0.384
16,GGGAUCUAAAGGCUGAAAATT against Mark4,inactive: 1.73
17,GGAAGACGUGAGAACAGCATT against Gig1,inactive: 0.167
18,GCUGAAAAUCACCCAGCAATT against 2600003E23Rik,inactive: 0.586
19,UUGUAGAAGCAUUCUUAUCTT against Olfr668,inactive: -0.915
20,GGCUGAAGCUCGACUGAAGTT against Abcf3,inactive: -1.66
21,GGAAAAAAUCACAUUGACUTT against Hist1h2ac,inactive: 0.641
22,CCUUCGAGUACACCUUGCUTT against Adamtsl2,inactive: -1.23
23,GGAUUAGGAAAGAGAGAACTT against 4930519G04Rik,inactive: 0.231
24,GGUGAACCACGAGAAGAGUTT against Hk1,inactive: -0.525
25,GCCCAGUCUUGAUUAUCUATT against 0610006O14Rik,inactive: 1.01
26,GGAACACUUCAUCAGUCAGTT against Chrnb3,inactive: -2.41

row,Sequence,z-score
1,GGUCCAGAGAAGGCAAGCUTT against Elf3,inactive: -0.0237
2,GGGUCGGGUUUCCUAAAGATT against A230048G03Rik,inactive: -0.0336
3,GGAUUAUUAGCACUGCUAGTT against Oaz2,inactive: -0.36
4,GGACCUGAGAGACUCUUUGTT against 1500005N04Rik,inactive: -0.738
5,GGAAGAAAAGUAUUACAGCTT against Itgb3bp,inactive: 0.115
6,GCACUAAACGUGAAGGAGUTT against Npl,inactive: -0.0845
7,GGGAUUUCACUCCCUAAAGTT against 1700024C24Rik,inactive: 0.501
8,CCAUCUGUAACGGAUCUGATT against 2010316F05Rik,inactive: -1.89
9,GGCACCCUAUUUGUCAACGTT against 6430402H13Rik,inactive: 0.0438
10,GCUAUGUGACCAGAACGAGTT against Tsc2,inactive: 0.313
11,GGUGGGACUUGAUUUUUCUTT against Lrrfip1,inactive: 1.29
12,GGAUCAGCCCAUCUACUUGTT against 1110060M21Rik,inactive: 0.574
13,GAGGAAAGAAUAGACAAGATT against Psx1,inactive: 0.366
14,GGCAAACUGUCUCUUCAGATT against Pim1,inactive: 0.612
15,GGAAGAAAUAGAGUUUUACTT against Ephx2,inactive: -0.248
16,GGCCAAAAAGGAGGCACCATT against Rps15,inactive: -2.85
17,CCUGUUAAGAUCAAUCUCATT against Ldh3,inactive: -0.0884
18,CCAUUAACUCUUUGAGUAUTT against Omg,inactive: -1.46
19,GGCUUGAAUGCCACAGCUGTT against Slc26a6,inactive: 0.265
20,GGCUGCAUGACCCAAUUGUTT against Olfr1221,inactive: -0.00602
21,GCUUCUUAUGAAAAGAUGCTT against Epc2,inactive: 0.0697
22,CCUCUAACAUACGUAAGUUTT against 1200016B17Rik,inactive: 0.364
23,CCUAACUGAAUUUUUCGUGTT against Cse1l,inactive: -0.157
24,GGAAUUCAGUGAAUGUCAUTT against 4432404J10Rik,inactive: 2.34
25,GGCUUUGUAUAUCUUAUCGTT against 9030227G01Rik,inactive: 1.82
